Assay results: the supplement of paper PMC10727501
The other results are listed elsewhere or left out. Single values are uncertain here, since repeats match poorly.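 Free-swimming zebrafish larvae were scored for O-bend response probability to dark flashes (naive: first five; training: remaining flashes of four 60-flash blocks; test: later 60-flash block) and for turning toward alternating leftward/rightward LED motion (OMR). Six treated larvae were compared with sixty 0.1% DMSO controls; |SSMD|≥2 defined a hit.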

Experiments:
Settings in all cases: 10 µM; pre-incubation: 30-90 min
[1] = system: Danio rerio larvae (5 dpf, TLF); assay: OMR-Perf (SSMD vs DMSO vehicle); higher = higher than vehicle (e.g. higher dark-flash O-bend response probability, or better optomotor performance)
[2] = system: Danio rerio larvae (5 dpf, TLF); assay: Prob-Test (SSMD vs DMSO vehicle); higher = higher than vehicle (e.g. higher dark-flash O-bend response probability, or better optomotor performance)
[3] = system: Danio rerio larvae (5 dpf, TLF); assay: Prob-Naive (SSMD vs DMSO vehicle); higher = higher than vehicle (e.g. higher dark-flash O-bend response probability, or better optomotor performance)
[4] = system: Danio rerio larvae (5 dpf, TLF); assay: Prob-Train (SSMD vs DMSO vehicle); higher = higher than vehicle (e.g. higher dark-flash O-bend response probability, or better optomotor performance)

Row | Compound | OMR-Perf [1] | Prob-Test [2] | Prob-Naive [3] | Prob-Train [4]
1 | C[C@H](CCC(=O)O)[C@@H]1CC[C@H]2[C@@H]3[C@H](O)C[C@@H]4C[C@H](O)CC[C@]4(C)[C@@H]3CC[C@@]21C [Chenodeoxycholic Acid] | -0.186 | -0.787 | 0.184 | -0.623
2 | COc1ccc2c(c1)c(CC(=O)OCC(=O)O)c(C)n2C(=O)c1ccc(Cl)cc1 [Acemetacin] | -0.203 | 0.566 | 0.13 | -0.151
3 | CCc1cc(C(N)=S)ccn1 [Ethionamide] | -0.4 | 0.493 | 0.0311 | 0.414
4 | CCNC(=O)[C@H]1O[C@@H](n2cnc3c(N)nc(NCCc4ccc(CCC(=O)O)cc4)nc32)[C@@H](O)[C@@H]1O.Cl | -0.102 | 0.0319 | 0.0613 | -0.181
5 | CC1(C)S[C@@H]2[C@H](NC(=O)[C@H](N)c3ccc(O)cc3)C(=O)N2[C@@H]1C(=O)[O-].[Na+] [Amoxicillin Sodium] | -0.672 | 0.163 | 0.204 | 0.393
